Patent publication US20130115636A1, “HISTONE CITRULLINATED PEPTIDES AND USES THEREOF” (TOSCANA BIOMARKERS S.R.L., priority 2010, published 2013)
Part of at least one peptide drawing is inferred or uncertain, most often the ends. Bridge positions count the residues as written; N and C are the ends. Square brackets hold non-standard residues; d marks the D form. Ends that are not written are not given here. Peptide text beside a SMILES is read from it. I, II: the chains in the order shown. Cit = NC(=O)NCCC[C@H](N)C(=O)O; βAla = NCCC(=O)O

Tests used:
[1] = test system: ACPA in RA sera versus NHS sera; assay: ELISA, antigenic determinants with overlapping peptides of H4(1-50) (Example 6, FIG. 5); type: binding, human; conditions: 18 RA and 23 NHS sera; index = OD sample/OD cutoff, positive above 1.0
[2] = test system: anti-CP antibodies (IgG) from sera of RA patients; assay: Affinity chromatography purification of anti-CP antibodies from RA sera, eluates tested by ELISA (Example 4, FIGS. 1 and 2); type: binding, human; conditions: two representative RA sera, peptide on CNBr-activated sepharose

## CC[C@H](C)[C@H](NC(=O)[C@H](CC(N)=O)NC(=O)[C@H](CC(=O)O)NC(=O)[C@H](CCCNC(N)=O)NC(=O)[C@H](CC(C)C)NC(=O)[C@@H](NC(=O)[C@H](CCCCN)NC(=O)[C@@H](N)CCCNC(=N)N)C(C)C)C(=O)N[C@@H](CCC(N)=O)C(=O)NCC(=O)N[C@@H](CCCCN)C(=O)N[C@@H](CCCNC(=N)N)C(=O)N[C@@H](CCC(N)=O)C(=O)NCC(=O)N[C@@H](CCCNC(N)=O)C(=O)N[C@H](C(=O)N[C@@H](CC(C)C)C(=O)N[C@@H](Cc1ccc(O)cc1)C(=O)NCC(=O)O)[C@@H](C)O [[Cit^23,Cit^95]H4(19-28)-(91-99)] (H-RKVL[Cit]DNIQGKRQG[Cit]TLYG-OH)
[1]
  Discrimination between RA and NHS sera: No significant discrimination

## I: EEEDEDMGFGLFDKK[βAla] / II: EEEDEDMGFGLFDK / III: EEEDEDMGFGLFD / IV: EEEDEDMGFGLFD (amide I:14-IV:C, I:15-II:C, II:14-III:C) [control MAP]
[2]
  ACPA purification / IgG antibody detection from RA sera: did not detect any IgG antibody

## CC[C@H](C)[C@H](NC(=O)[C@H](CC(N)=O)NC(=O)[C@H](CC(=O)O)NC(=O)[C@H](CCCNC(N)=O)NC(=O)[C@H](CC(C)C)NC(=O)[C@@H](NC(=O)[C@H](CCCCN)NC(=O)[C@@H](N)CCCNC(=N)N)C(C)C)C(=O)N[C@@H](CCC(N)=O)C(=O)NCC(=O)O [[Cit^23]H4(19-28), RKVLCitDNIQG] (H-RKVL[Cit]DNIQG-OH)
[1]
  Discrimination between RA and NHS sera: No significant discrimination
